In article doi:10.1101/2024.02.14.580338 one finds binding data, which are given here for two molecules.

Amino acid sequences for entries named in this document (tags omitted).
UniProt P70168: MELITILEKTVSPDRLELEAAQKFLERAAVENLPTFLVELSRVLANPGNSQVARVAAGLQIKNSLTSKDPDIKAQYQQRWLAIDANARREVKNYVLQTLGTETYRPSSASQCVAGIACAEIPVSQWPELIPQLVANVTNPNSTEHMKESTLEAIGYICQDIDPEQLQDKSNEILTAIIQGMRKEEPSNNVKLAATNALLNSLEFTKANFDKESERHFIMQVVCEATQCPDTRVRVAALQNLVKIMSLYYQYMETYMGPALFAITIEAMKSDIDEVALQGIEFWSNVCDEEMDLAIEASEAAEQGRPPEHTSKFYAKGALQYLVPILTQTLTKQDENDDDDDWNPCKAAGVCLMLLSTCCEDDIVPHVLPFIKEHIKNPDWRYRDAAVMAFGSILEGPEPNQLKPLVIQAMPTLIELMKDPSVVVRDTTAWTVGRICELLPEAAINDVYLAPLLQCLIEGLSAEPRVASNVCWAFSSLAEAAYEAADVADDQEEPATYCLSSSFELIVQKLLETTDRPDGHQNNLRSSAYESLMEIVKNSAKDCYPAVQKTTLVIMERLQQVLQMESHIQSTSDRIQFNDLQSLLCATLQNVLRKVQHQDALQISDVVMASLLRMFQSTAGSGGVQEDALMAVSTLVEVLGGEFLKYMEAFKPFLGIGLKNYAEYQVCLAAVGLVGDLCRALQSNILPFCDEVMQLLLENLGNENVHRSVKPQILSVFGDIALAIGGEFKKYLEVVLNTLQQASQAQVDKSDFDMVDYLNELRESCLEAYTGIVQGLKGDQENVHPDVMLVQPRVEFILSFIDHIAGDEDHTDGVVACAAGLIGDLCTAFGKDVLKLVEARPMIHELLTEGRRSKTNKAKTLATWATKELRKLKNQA

No constants are given. Whether binding was seen depends on the method and setting. In cells and extracts the contact can be indirect. Some binding calls cover weakened binding; strength is not graded here.

For the assay, the target named is Importin-β (mouse (endogenous in MEFs)) (UniProt P70168). Briefly: proximity ligation.

B1: NEMF R86S (protein, UniProt Q8CCP0 1-1064)
chain: MKSRFSTVDLRAVLAELNASLLGMRVNNVYDVDNKTYLIRLQKPDFKATLLLESGIRIHTTEFEWPKNMMPSSFAMKCRKHLKSRSLVSAKQLGVDRIVDFQFGSDEAAYHLIIELYDRGNIVLTDYEYLILNILRFRTDEADDVKFAVRERYPIDHARAAEPLLTLERLTEVIAAAPKGEVLKRVLNPLLPYGPALIEHCLIESGFSGNAKVDEKLESKDIEKILVCVQRAEDYLRKTSNFNGKGYIIQKREAKPSLDADKPAEDILTYEEFHPFLFSQHLQCPYIEFESFDKAVDEFYSKIEGQKIDLKALQQEKQALKKLDNVRKDHENRLEALQQAQEIDKLKGELIEMNLQIVDRAIQVVRSALANQIDWTEIGVIVKEAQAQGDPVACAIKELKLQTNHVTMLLRNPYLLSEEEDGDGDASIENSDAEAPKGKKKKQKNKQLQKPQKNKPLLVDVDLSLSAYANAKKYYDHKRYAAKKTQRTVEAAEKAFKSAEKKTKQTLKEVQTVTSIQKARKVYWFEKFLWFISSENYLIIGGRDQQQNEIIVKRYLTPGDIYVHADLHGATSCVIKNPTGEPIPPRTLTEAGTMALCYSAAWDARVITSAWWVYHHQVSKTAPTGEYLTTGSFMIRGKKNFLPPSYLMMGFSFLFKVDESCVWRHRGERKVRVQDEDMETLTSCTSELMAEEMEQLEGGDSSEEETEELHGMPGDVELMTQVDQEDIAVHSGRDELSSEDGEAKAVTKDQEPIGEMKEEEEDTFEYPDTTIDLSHLQSQRPLQKLAPREESLNSNDSKSQGRRHLSAKERREMKKKKLPCESGDLEVIEEKDKERESAVHTEAYQNTSKNVAAGQPMKRGQKSKMKKMKEKYKDQDDEDRELIMKLLASAGSNKEEKGKKGKKGKPKDEPVKKPPQKPRGGQRVLDVVKEPPSLQVLAHDLQDLAVDDPHDDKEEHDLDQQGNEENLFDSLTGQPHPEDVLMFAIPICAPYTIMTNYKYKVKLTPGVQKKGKAAKTALNSFMHSKEATAREKDLFRSVKDTDLSRNIPGKVKVSAPNLLHVKRK
As to B1, the binding result was “binds”.

B2: Nuclear Export Mediator Factor (NEMF), wild type (protein, UniProt Q8CCP0 1-1064)
chain: MKSRFSTVDLRAVLAELNASLLGMRVNNVYDVDNKTYLIRLQKPDFKATLLLESGIRIHTTEFEWPKNMMPSSFAMKCRKHLKSRRLVSAKQLGVDRIVDFQFGSDEAAYHLIIELYDRGNIVLTDYEYLILNILRFRTDEADDVKFAVRERYPIDHARAAEPLLTLERLTEVIAAAPKGEVLKRVLNPLLPYGPALIEHCLIESGFSGNAKVDEKLESKDIEKILVCVQRAEDYLRKTSNFNGKGYIIQKREAKPSLDADKPAEDILTYEEFHPFLFSQHLQCPYIEFESFDKAVDEFYSKIEGQKIDLKALQQEKQALKKLDNVRKDHENRLEALQQAQEIDKLKGELIEMNLQIVDRAIQVVRSALANQIDWTEIGVIVKEAQAQGDPVACAIKELKLQTNHVTMLLRNPYLLSEEEDGDGDASIENSDAEAPKGKKKKQKNKQLQKPQKNKPLLVDVDLSLSAYANAKKYYDHKRYAAKKTQRTVEAAEKAFKSAEKKTKQTLKEVQTVTSIQKARKVYWFEKFLWFISSENYLIIGGRDQQQNEIIVKRYLTPGDIYVHADLHGATSCVIKNPTGEPIPPRTLTEAGTMALCYSAAWDARVITSAWWVYHHQVSKTAPTGEYLTTGSFMIRGKKNFLPPSYLMMGFSFLFKVDESCVWRHRGERKVRVQDEDMETLTSCTSELMAEEMEQLEGGDSSEEETEELHGMPGDVELMTQVDQEDIAVHSGRDELSSEDGEAKAVTKDQEPIGEMKEEEEDTFEYPDTTIDLSHLQSQRPLQKLAPREESLNSNDSKSQGRRHLSAKERREMKKKKLPCESGDLEVIEEKDKERESAVHTEAYQNTSKNVAAGQPMKRGQKSKMKKMKEKYKDQDDEDRELIMKLLASAGSNKEEKGKKGKKGKPKDEPVKKPPQKPRGGQRVLDVVKEPPSLQVLAHDLQDLAVDDPHDDKEEHDLDQQGNEENLFDSLTGQPHPEDVLMFAIPICAPYTIMTNYKYKVKLTPGVQKKGKAAKTALNSFMHSKEATAREKDLFRSVKDTDLSRNIPGKVKVSAPNLLHVKRK
B2: the binding result was “binds”.
